Reference: patent US20010029293A1
Results are given in words; binding and its absence hold for the method and conditions named. Some binding calls cover weakened binding; strength is not graded here.

T1: soluble human ICAM-R (human) (UniProt P32942)
T1 sequence: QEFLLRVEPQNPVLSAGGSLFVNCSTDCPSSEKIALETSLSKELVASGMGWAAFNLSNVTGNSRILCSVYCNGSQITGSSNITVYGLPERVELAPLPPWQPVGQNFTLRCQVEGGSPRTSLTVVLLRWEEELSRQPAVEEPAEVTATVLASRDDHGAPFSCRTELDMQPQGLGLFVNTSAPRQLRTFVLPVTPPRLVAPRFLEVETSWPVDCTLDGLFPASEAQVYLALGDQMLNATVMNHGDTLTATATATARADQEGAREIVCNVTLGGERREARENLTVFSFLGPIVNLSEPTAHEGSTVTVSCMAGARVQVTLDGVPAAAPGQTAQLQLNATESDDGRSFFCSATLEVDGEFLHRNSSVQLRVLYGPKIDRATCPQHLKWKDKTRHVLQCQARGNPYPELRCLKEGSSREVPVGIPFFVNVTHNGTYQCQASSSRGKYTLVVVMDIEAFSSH

B1: ICR-8.1 HuVHV/MuVK (antibody, human IgG4, V domains shown)
VH: QVQLVQSGAEVKKPGASVKVSCKASGYTFTDCIILWVRQAPGQGLEWMGKINPYFGTTTYNLKFKGRVTITVDTSTSTAYMELSSLRSEDTAVYYCARKEAYPDAMDYWGQGTLVTVSS
VL: DAVMTQTPLSLPVSLGDQASISCRSSQSLVHSNGDTYLHWYLQKPGQSPQLLIYKVSNRFSGVPDRFSGSGSGTDFTLKLSRVEAEDLGVYFCSQSTHVPYTFGGGTKLEIK
B2: ICR-8.1 miHuVH/MuVK (antibody, human IgG4, V domains shown)
VH: QVQLVQSGAEVKKPGASVKVSCKASGYTFTDCIILWVRQAPGQGLEWMGKINPYFGTTTYAQKFQGRVTITADTSTSTAYMELSSLRSEDTAVYYCARKEAYPDAMDYWGQGTLVTVSS
VL: DAVMTQTPLSLPVSLGDQASISCRSSQSLVHSNGDTYLHWYLQKPGQSPQLLIYKVSNRFSGVPDRFSGSGSGTDFTLKLSRVEAEDLGVYFCSQSTHVPYTFGGGTKLEIK
B3: ICR-8.1 miHuVH/HuVK (antibody, human IgG4, V domains shown)
VH: QVQLVQSGAEVKKPGASVKVSCKASGYTFTDCIILWVRQAPGQGLEWMGKINPYFGTTTYAQKFQGRVTITADTSTSTAYMELSSLRSEDTAVYYCARKEAYPDAMDYWGQGTLVTVSS
VL: DIVMTQSPLSLPVTPGEPASISCRSSQSLVHSNGDTYLHWYLQKPGQSPQLLIYKVSNRFSGVPDRFSGSGSGTDFTLKISRVEAEDVGVYYCSQSTHVPYTFGQGTKVEIK

The binders below were run against T1, soluble human ICAM-R (human) (assay: ELISA on coated shICAM-R).

| Binder | binding |
| --- | --- |
| B1 | binds |
| B2 | binds |
| B3 | binds |
